Patent publication WO2019173771A1
These are yes or no findings as the source states them, for the method shown. Some binding calls cover weakened binding; strength is not graded here.

Chains of the proteins cited; added tags and fusions are not shown. Residues count along the entry.
UniProt P35613, residues 138-325: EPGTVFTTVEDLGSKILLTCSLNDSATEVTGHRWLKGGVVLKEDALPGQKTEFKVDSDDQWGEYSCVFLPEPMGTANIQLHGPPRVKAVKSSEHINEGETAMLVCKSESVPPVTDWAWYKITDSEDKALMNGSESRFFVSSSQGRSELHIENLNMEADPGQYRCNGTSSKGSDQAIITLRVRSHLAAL

Target: human CD147 extracellular domain (ECD) (human) (UniProt P35613)
Test: ELISA screen of hybridomas

binding: binds
B1: mouse anti-human CD147 3A11 monoclonal antibody (antibody, V domains shown)
VH: EVKLEESGGGLVQPGGSMKLSCVASGFTFSNYWMNWVRQSPEKGLEWVGEIRLKSYNYATHYVESVEGRFTISRDDSKSSVYLQMNNLRAEDTGIYYCTAAGTDYWGQGTTLTVSS
VL: SIVMTQIPKILLVSAGDRVTITCKASQSVRTDVAWYQQKPGQSPKLLIYYSSNRYTGVPDRFTGSGYGTDFTFTISTVQAEDLAVYFCQQDYSSPFTFGSGTKLEIK
